# Data source: PubChem BioAssay AID1259254 (NCATS, 2017)
# Assay: 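Gene knock-downs that lead to re-replication, shown by excess G2 DNA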 (primary screen)
# System: human HCT116 colorectal cancer cells
# Reagent: single siRNA against human genes
# Time to read-out: 3 days
# Read-out: 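Nuclei stained with Hoechst and imaged; cell-cycle phase assigned by DNA content; G2 share scaled per plate, non-targeting siRNA 0%, GMNN siRNA 100%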
# Reading the numbers: G2 robust z-score and G2 cells, % of GMNN control: higher = more G2 cells, more excess DNA replication; raw share of cells in G2: higher = larger share of cells with G2 DNA content
# Rule for the call: 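Active siRNAs have a G2 robust z of 5 or more median absolute deviations over the median, which in these data means about 38% or higher of GMNN control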
# In all, the deposit lists about 59,000 reagents; this is a part drawn at random. About 1,550 of them (2.6%) count as active. 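G2 share is only a proxy for re-replication; each gene was hit by three separate siRNAs, and active genes were retested.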 Raw values are not corrected between plates. The numbers tell different reagents against one gene apart. Reagent sequences are not shown. Not given: the amount of reagent.
gene,reagent no.,G2 robust z-score,"G2 cells, % of GMNN control",raw share of cells in G2 (%),Call
PSMD12,1,2.21,18.5,10.8,inactive
PSMD12,2,0.453,6.15,7.73,inactive
PSMD12,3,0.396,5.75,5.2,inactive
RAP2C,1,-1.06,-4.49,3.79,inactive
RAP2C,2,0.182,4.25,5.77,inactive
RAP2C,3,-0.382,0.282,4.45,inactive
MPP7,1,-0.156,1.87,6.17,inactive
MPP7,2,-1.06,-4.48,3.56,inactive
MPP7,3,1.14,11,7.2,inactive
SLC46A1,1,1.65,14.6,12.4,inactive
SLC46A1,2,0.412,5.87,7.48,inactive
SLC46A1,3,0.538,6.76,7.03,inactive
FERMT3,1,-0.968,-3.85,2.83,inactive
FERMT3,2,-0.288,0.943,3.74,inactive
FERMT3,3,-0.0518,2.6,3.19,inactive
NCOA4,1,-0.897,-3.34,2.41,inactive
NCOA4,2,-1.22,-5.6,3.49,inactive
NCOA4,3,-0.545,-0.864,2.98,inactive
CDKN2B,1,-0.0855,2.37,4.91,inactive
CDKN2B,2,-1.22,-5.58,2.97,inactive
CDKN2B,3,0.418,5.91,7.15,inactive
ZNF436-AS1,1,-0.263,1.12,4.2,inactive
ZNF436-AS1,2,1.44,13.1,6.95,inactive
ZNF436-AS1,3,0.749,8.24,5.94,inactive
PLD4,1,-1.04,-4.35,2.04,inactive
PLD4,2,-0.457,-0.249,1.75,inactive
PLD4,3,-0.295,0.892,4.45,inactive
KYAT3,1,-0.0339,2.73,7.63,inactive
KYAT3,2,-0.16,1.84,5.1,inactive
KYAT3,3,-1.18,-5.32,2.12,inactive
CHCHD6,1,0.3,5.08,5.8,inactive
CHCHD6,2,1.11,10.8,6.66,inactive
CHCHD6,3,-0.124,2.1,3.04,inactive
RYBP,1,-0.231,1.34,3.97,inactive
RYBP,2,3.69,29,18.9,inactive
RYBP,3,1.53,13.7,9.08,inactive
ACSM2B,1,-1.14,-5.08,2.43,inactive
ACSM2B,2,-0.137,2,6.77,inactive
ACSM2B,3,0.141,3.96,6.51,inactive
TMEM196,1,0.679,7.74,6.39,inactive
TMEM196,2,-0.311,0.782,3.4,inactive
TMEM196,3,0.107,3.72,4.38,inactive
UBQLN1,1,1.44,13.1,8.85,inactive
UBQLN1,2,-0.875,-3.19,3.34,inactive
UBQLN1,3,2.28,19,9.24,inactive
MBNL2,1,-0.0401,2.69,7.54,inactive
MBNL2,2,0.243,4.68,7.73,inactive
MBNL2,3,0.0111,3.05,4.83,inactive
